Source: PubChem BioAssay AID188 (DTP/NCI, 2004)
Values are animals surviving of animals treated; these mice carried no tumour. Survivors were counted at the toxicity check, usually on the fifth day, unless a day is given; later deaths do not show. Schedules are NCI's codes, taken here to give the interval after Q, in days (D) or hours (H), and the number of doses after X.

Test system: CD2F1 mice, nontumored, toxicity/survival
Assay: NCI In Vivo Anticancer Drug Screen. Data for tumor model Nontumored Animals (Toxicity Test) in CD2F1 (CDF1) mice

COC(=O)[C@@]12OC[C@]34[C@H]([C@@H](O)[C@@H]1O)[C@@]1(C)CC(=O)C(O)=C(C)[C@@H]1C[C@H]3OC(=O)[C@H](OC(=O)/C=C(\C)C(C)C)[C@@H]24
survivor count (dose: 0.03 mg/kg/injection, schedule: Q01DX009 (ip), vehicle: saline + alcohol): 8 of 8 | survivor count (dose: 0.03 mg/kg/injection, schedule: Q01DX009 (ip), vehicle: saline with Tween-80): 8 of 8 | survivor count (dose: 0.03 mg/kg/injection, schedule: Q03HX024 (ip), vehicle: saline + alcohol): 8 of 8 | survivor count (dose: 0.06 mg/kg/injection, schedule: Q01DX009 (ip), vehicle: saline + alcohol): 8 of 8 | survivor count (dose: 0.06 mg/kg/injection, schedule: Q01DX009 (ip), vehicle: saline with Tween-80): 8 of 8 | survivor count (dose: 0.06 mg/kg/injection, schedule: Q01DX009 (sc), vehicle: saline + alcohol): 8 of 8 | survivor count (dose: 0.06 mg/kg/injection, schedule: Q03HX016 (ip), vehicle: saline + alcohol): 8 of 8 | survivor count (dose: 0.06 mg/kg/injection, schedule: Q03HX024 (ip), vehicle: saline + alcohol): 8 of 8 | survivor count (dose: 0.13 mg/kg/injection, schedule: Q01DX009 (ip), vehicle: saline + alcohol): 8 of 8 | survivor count (dose: 0.13 mg/kg/injection, schedule: Q01DX009 (ip), vehicle: saline with Tween-80): 8 of 8 | survivor count (dose: 0.13 mg/kg/injection, schedule: Q01DX009 (sc), vehicle: saline + alcohol): 8 of 8 | survivor count (dose: 0.13 mg/kg/injection, schedule: Q03HX008 (ip), vehicle: saline + alcohol): 7 of 8 | survivor count (dose: 0.13 mg/kg/injection, schedule: Q03HX016 (ip), vehicle: saline + alcohol): 8 of 8 | survivor count (dose: 0.13 mg/kg/injection, schedule: Q03HX024 (ip), vehicle: saline + alcohol): 8 of 8 | survivor count (dose: 0.25 mg/kg/injection, schedule: Q01DX009 (ip), vehicle: saline + alcohol): 8 of 8 | survivor count (dose: 0.25 mg/kg/injection, schedule: Q01DX009 (ip), vehicle: saline with Tween-80): 8 of 8 | survivor count (dose: 0.25 mg/kg/injection, schedule: Q01DX009 (sc), vehicle: saline + alcohol): 8 of 8 | survivor count (dose: 0.25 mg/kg/injection, schedule: Q03HX008 (ip), vehicle: saline + alcohol): 5 of 8 | survivor count (dose: 0.25 mg/kg/injection, schedule: Q03HX016 (ip), vehicle: saline + alcohol): 5 of 8 | survivor count (dose: 0.25 mg/kg/injection, schedule: Q03HX024 (ip), vehicle: saline + alcohol): 5 of 8 | survivor count (dose: 0.25 mg/kg/injection, schedule: Q04DX003 (ip), vehicle: saline + alcohol): 8 of 8 | survivor count (dose: 0.5 mg/kg/injection, schedule: Q01DX009 (ip), vehicle: saline + alcohol): 8 of 8 | survivor count (dose: 0.5 mg/kg/injection, schedule: Q01DX009 (ip), vehicle: saline with Tween-80): 8 of 8 | survivor count (dose: 0.5 mg/kg/injection, schedule: Q01DX009 (oral), vehicle: saline + alcohol): 8 of 8 | survivor count (dose: 0.5 mg/kg/injection, schedule: Q01DX009 (sc), vehicle: saline + alcohol): 8 of 8 | survivor count (dose: 0.5 mg/kg/injection, schedule: Q03HX008 (ip), vehicle: saline + alcohol): 8 of 8 | survivor count (dose: 0.5 mg/kg/injection, schedule: Q03HX016 (ip), vehicle: saline + alcohol): 0 of 8 | survivor count (dose: 0.5 mg/kg/injection, schedule: Q03HX024 (ip), vehicle: saline + alcohol): 1 of 8 | survivor count (dose: 0.5 mg/kg/injection, schedule: Q04DX003 (ip), vehicle: saline + alcohol): 8 of 8 | survivor count (dose: 0.5 mg/kg/injection, schedule: Q08DX002 (ip), vehicle: saline + alcohol): 8 of 8 | survivor count (dose: 1.0 mg/kg/injection, schedule: Q01DX001 (ip), vehicle: saline + alcohol): 8 of 8 | survivor count (dose: 1.0 mg/kg/injection, schedule: Q01DX001 (sc), vehicle: saline + alcohol): 8 of 8 | survivor count (dose: 1.0 mg/kg/injection, schedule: Q01DX009 (ip), vehicle: saline + alcohol): 8 of 8 | survivor count (dose: 1.0 mg/kg/injection, schedule: Q01DX009 (ip), vehicle: saline with Tween-80): 8 of 8 | survivor count (dose: 1.0 mg/kg/injection, schedule: Q01DX009 (oral), vehicle: saline + alcohol): 8 of 8 | survivor count (dose: 1.0 mg/kg/injection, schedule: Q01DX009 (sc), vehicle: saline + alcohol): 8 of 8 | survivor count (dose: 1.0 mg/kg/injection, schedule: Q03HX008 (ip), vehicle: saline + alcohol): 0 of 8 | survivor count (dose: 1.0 mg/kg/injection, schedule: Q03HX016 (ip), vehicle: saline + alcohol): 0 of 8 | survivor count (dose: 1.0 mg/kg/injection, schedule: Q04DX003 (ip), vehicle: saline + alcohol): 8 of 8 | survivor count (dose: 1.0 mg/kg/injection, schedule: Q08DX002 (ip), vehicle: saline + alcohol): 8 of 8 | survivor count (dose: 2.0 mg/kg/injection, schedule: Q01DX001 (ip), vehicle: saline + alcohol): 8 of 8 | survivor count (dose: 2.0 mg/kg/injection, schedule: Q01DX001 (sc), vehicle: saline + alcohol): 8 of 8 | survivor count (dose: 2.0 mg/kg/injection, schedule: Q01DX009 (ip), vehicle: saline + alcohol): 8 of 8 | survivor count (dose: 2.0 mg/kg/injection, schedule: Q01DX009 (ip), vehicle: saline with Tween-80): 8 of 8 | survivor count (dose: 2.0 mg/kg/injection, schedule: Q01DX009 (oral), vehicle: saline + alcohol): 8 of 8 | survivor count (dose: 2.0 mg/kg/injection, schedule: Q01DX009 (sc), vehicle: saline + alcohol): 8 of 8 | survivor count (dose: 2.0 mg/kg/injection, schedule: Q03HX008 (ip), vehicle: saline + alcohol): 0 of 8 | survivor count (dose: 2.0 mg/kg/injection, schedule: Q03HX016 (ip), vehicle: saline + alcohol): 0 of 8 | survivor count (dose: 2.0 mg/kg/injection, schedule: Q04DX003 (ip), vehicle: saline + alcohol): 7 of 8 | survivor count (dose: 2.0 mg/kg/injection, schedule: Q08DX002 (ip), vehicle: saline + alcohol): 8 of 8 | survivor count (dose: 4.0 mg/kg/injection, schedule: Q01DX001 (ip), vehicle: saline + alcohol): 7 of 8 | survivor count (dose: 4.0 mg/kg/injection, schedule: Q01DX001 (oral), vehicle: saline + alcohol): 8 of 8 | survivor count (dose: 4.0 mg/kg/injection, schedule: Q01DX001 (sc), vehicle: saline + alcohol): 5 of 8 | survivor count (dose: 4.0 mg/kg/injection, schedule: Q01DX009 (ip), vehicle: saline + alcohol): 4 of 8 | survivor count (dose: 4.0 mg/kg/injection, schedule: Q01DX009 (ip), vehicle: saline with Tween-80): 4 of 8 | survivor count (dose: 4.0 mg/kg/injection, schedule: Q01DX009 (oral), vehicle: saline + alcohol): 3 of 8 | survivor count (dose: 4.0 mg/kg/injection, schedule: Q04DX003 (ip), vehicle: saline + alcohol): 8 of 8 | survivor count (dose: 4.0 mg/kg/injection, schedule: Q08DX002 (ip), vehicle: saline + alcohol): 7 of 8 | survivor count (dose: 8.0 mg/kg/injection, schedule: Q01DX001 (ip), vehicle: saline + alcohol): 2 of 8 | survivor count (dose: 8.0 mg/kg/injection, schedule: Q01DX001 (oral), vehicle: saline + alcohol): 5 of 8 | survivor count (dose: 8.0 mg/kg/injection, schedule: Q01DX001 (sc), vehicle: saline + alcohol): 0 of 8 | survivor count (dose: 8.0 mg/kg/injection, schedule: Q01DX009 (oral), vehicle: saline + alcohol): 0 of 8 | survivor count (dose: 8.0 mg/kg/injection, schedule: Q08DX002 (ip), vehicle: saline + alcohol): 1 of 8 | survivor count (dose: 16.0 mg/kg/injection, schedule: Q01DX001 (ip), vehicle: saline + alcohol): 0 of 8 | survivor count (dose: 16.0 mg/kg/injection, schedule: Q01DX001 (oral), vehicle: saline + alcohol): 0 of 8 | survivor count (dose: 16.0 mg/kg/injection, schedule: Q01DX001 (sc), vehicle: saline + alcohol): 0 of 8 | survivor count (dose: 16.0 mg/kg/injection, schedule: Q08DX002 (ip), vehicle: saline + alcohol): 0 of 8 | survivor count (dose: 32.0 mg/kg/injection, schedule: Q01DX001 (oral), vehicle: saline + alcohol): 0 of 8 | survivor count (dose: 64.0 mg/kg/injection, schedule: Q01DX001 (oral), vehicle: saline + alcohol): 0 of 8
